Assay: Measurement of concentration in the air over the working area during handling
Procedure: A phenyl vinyl sulfone/acetonitrile solution (concentration, 31.7% by weight; temperature, 40° C.) in a reaction vessel was drawn into another vessel by opening a bottom drawing cock of the reaction vessel. The concentration of phenyl vinyl sulfone in the air over a working area during this drawing work (an area within a distance of 100 cm from the drawing site) was measured to be 0.01 mg/m^3 at the maximum.
At room temperature, a reaction vessel was charged with 65 parts by weight of acetonitrile and then with 34.8 parts by weight of phenyl vinyl sulfone in powder form. The concentration of phenyl vinyl sulfone in the air over a working area during this charging work (an area within a distance of 100 cm from the charging site) was measured to be 0.12 mg/m^3 at the maximum. As compared with the work of handling a phenyl vinyl sulfone solution, the concentration of phenyl vinyl sulfone in the air was about 10 times as large as that one.

C=CS(=O)(=O)c1ccccc1 [phenyl vinyl sulfone]
Concentration in the air over a working area (maximum) (charging of powder form at room temperature, within 100 cm from the charging site): ≤ 0.12 mg/m^3
Concentration in the air over a working area (maximum) (drawing of acetonitrile solution (31.7% by weight, 40° C.), within 100 cm from the drawing site): ≤ 0.01 mg/m^3
Concentration in the air, powder handling compared with solution handling (powder vs solution handling): about 10 times

From patent publication US6399833B1, “Process for producing aryl vinyl sulfone solution and use thereof” (Sumitomo Chemical Company, Limited, priority 1998, dated 2002)
